The target of this assay is Influenza A virus non-structural protein 1 (NS1), strain A/Puerto Rico/8/1934(H1N1) (Influenza A virus A/Puerto Rico/8/1934(H1N1)) (UniProt P03496). Put plainly: affinity purification with mass spectrometry.

Sequences of proteins named here, by UniProt entry; tags and fusion partners are left off.
UniProt P03496: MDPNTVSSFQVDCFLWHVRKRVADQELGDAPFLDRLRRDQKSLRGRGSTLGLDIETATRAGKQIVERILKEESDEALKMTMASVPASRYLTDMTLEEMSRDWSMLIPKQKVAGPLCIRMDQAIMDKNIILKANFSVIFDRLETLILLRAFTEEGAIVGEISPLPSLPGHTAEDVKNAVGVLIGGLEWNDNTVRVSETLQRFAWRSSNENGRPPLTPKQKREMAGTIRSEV

Results on eight molecules are retold here after paper PMC6316800.

These are yes or no findings as the source states them, for the method shown. In cells and extracts the contact can be indirect. A yes stands for co-enrichment or nearness to the bait. Other partners may have been found.

B1: Splicing factor, arginine/serine-rich 19 (protein, UniProt Q9H7N4 1-1312)
chain: MEEEDESRGKTEESGEDRGDGPPDRDPTLSPSAFILRAIQQAVGSSLQGDLPNDKDGSRCHGLRWRRCRSPRSEPRSQESGGTDTATVLDMATDSFLAGLVSVLDPPDTWVPSRLDLRPGESEDMLELVAEVRIGDRDPIPLPVPSLLPRLRAWRTGKTVSPQSNSSRPTCARHLTLGTGDGGPAPPPAPSSASSSPSPSPSSSSPSPPPPPPPPAPPAPPAPRFDIYDPFHPTDEAYSPPPAPEQKYDPFEPTGSNPSSSAGTPSPEEEEEEEEEEEEEEEDEEEEEGLSQSISRISETLAGIYDDNSLSQDFPGDESPRPDAQPTQPTPAPGTPPQVDSTRADGAMRRRVFVVGTEAEACREGKVSVEVVTAGGAALPPPLLPPGDSEIEEGEIVQPEEEPRLALSLFRPGGRAARPTPAASATPTAQPLPQPPAPRAPEGDDFLSLHAESDGEGALQVDLGEPAPAPPAADSRWGGLDLRRKILTQRRERYRQRSPSPAPAPAPAAAAGPPTRKKSRRERKRSGEAKEAASSSSGTQPAPPAPASPWDSKKHRSRDRKPGSHASSSARRRSRSRSRSRSTRRRSRSTDRRRGGSRRSRSREKRRRRRRSASPPPATSSSSSSRRERHRGKHRDGGGSKKKKKRSRSRGEKRSGDGSEKAPAPAPPPSGSTSCGDRDSRRRGAVPPSIQDLTDHDLFAIKRTITVGRLDKSDPRGPSPAPASSPKREVLYDSEGLSGEERGGKSSQKDRRRSGAASSSSSSREKGSRRKALDGGDRDRDRDRDRDRDRSSKKARPPKESAPSSGPPPKPPVSSGSGSSSSSSSCSSRKVKLQSKVAVLIREGVSSTTPAKDAASAGLGSIGVKFSRDRESRSPFLKPDERAPTEMAKAAPGSTKPKKTKVKAKAGAKKTKGTKGKTKPSKTRKKVRSGGGSGGSGGQVSLKKSKADSCSQAAGTKGAEETSWSGEERAAKVPSTPPPKAAPPPPALTPDSQTVDSSCKTPEVSFLPEEATEEAGVRGGAEEEEEEEEEEEEEEEEEEQQPATTTATSTAAAAPSTAPSAGSTAGDSGAEDGPASRVSQLPTLPPPMPWNLPAGVDCTTSGVLALTALLFKMEEANLASRAKAQELIQATNQILSHRKPPSSLGMTPAPVPTSLGLPPGPSSYLLPGSLPLGGCGSTPPTPTGLAATSDKREGSSSSEGRGDTDKYLKKLHTQERAVEEVKLAIKPYYQKKDITKEEYKDILRKAVHKICHSKSGEINPVKVSNLVRAYVQRYRYFRKHGRKPGDPPGPPRPPKEPGPPDKGGPGLPLPPL
B1: the binding entry is given as “binds”.

B2: Transducin beta-like protein 3 (protein, UniProt Q12788 1-808)
chain: MAETAAGVGRFKTNYAVERKIEPFYKGGKAQLDQTGQHLFCVCGTRVNILEVASGAVLRSLEQEDQEDITAFDLSPDNEVLVTASRALLLAQWAWQEGSVTRLWKAIHTAPVATMAFDPTSTLLATGGCDGAVRVWDIVRHYGTHHFRGSPGVVHLVAFHPDPTRLLLFSSATDAAIRVWSLQDRSCLAVLTAHYSAVTSLAFSADGHTMLSSGRDKICIIWDLQSCQATRTVPVFESVEAAVLLPEEPVSQLGVKSPGLYFLTAGDQGTLRVWEAASGQCVYTQAQPPGPGQELTHCTLAHTAGVVLTATADHNLLLYEARSLRLQKQFAGYSEEVLDVRFLGPEDSHVVVASNSPCLKVFELQTSACQILHGHTDIVLALDVFRKGWLFASCAKDQSVRIWRMNKAGQVMCVAQGSGHTHSVGTVCCSRLKESFLVTGSQDCTVKLWPLPKALLSKNTAPDNGPILLQAQTTQRCHDKDINSVAIAPNDKLLATGSQDRTAKLWALPQCQLLGVFSGHRRGLWCVQFSPMDQVLATASADGTIKLWALQDFSCLKTFEGHDASVLKVAFVSRGTQLLSSGSDGLVKLWTIKNNECVRTLDAHEDKVWGLHCSRLDDHALTGASDSRVILWKDVTEAEQAEEQARQEEQVVRQQELDNLLHEKRYLRALGLAISLDRPHTVLTVIQAIRRDPEACEKLEATMLRLRRDQKEALLRFCVTWNTNSRHCHEAQAVLGVLLRREAPEELLAYEGVRAALEALLPYTERHFQRLSRTLQAAAFLDFLWHNMKLPVPAAAPTPWETHKGALP
With B2, the binding entry was “binds”.

B3: Splicing factor, arginine/serine-rich 4 (protein, UniProt Q08170 1-494)
chain: MPRVYIGRLSYQARERDVERFFKGYGKILEVDLKNGYGFVEFDDLRDADDAVYELNGKDLCGERVIVEHARGPRRDGSYGSGRSGYGYRRSGRDKYGPPTRTEYRLIVENLSSRCSWQDLKDYMRQAGEVTYADAHKGRKNEGVIEFVSYSDMKRALEKLDGTEVNGRKIRLVEDKPGSRRRRSYSRSRSHSRSRSRSRHSRKSRSRSGSSKSSHSKSRSRSRSGSRSRSKSRSRSQSRSRSKKEKSRSPSKEKSRSRSHSAGKSRSKSKDQAEEKIQNNDNVGKPKSRSPSRHKSKSKSRSRSQERRVEEEKRGSVSRGRSQEKSLRQSRSRSRSKGGSRSRSRSRSKSKDKRKGRKRSREESRSRSRSRSKSERSRKRGSKRDSKAGSSKKKKKEDTDRSQSRSPSRSVSKEREHAKSESSQREGRGESENAGTNQETRSRSRSNSKSKPNLPSESRSRSKSASKTRSRSKSRSRSASRSPSRSRSRSHSRS
In the case of B3, the binding result was “binds”.

B4: Splicing factor, arginine/serine-rich 6 (protein, UniProt Q13247 1-344)
chain: MPRVYIGRLSYNVREKDIQRFFSGYGRLLEVDLKNGYGFVEFEDSRDADDAVYELNGKELCGERVIVEHARGPRRDRDGYSYGSRSGGGGYSSRRTSGRDKYGPPVRTEYRLIVENLSSRCSWQDLKDFMRQAGEVTYADAHKERTNEGVIEFRSYSDMKRALDKLDGTEINGRNIRLIEDKPRTSHRRSYSGSRSRSRSRRRSRSRSRRSSRSRSRSISKSRSRSRSRSKGRSRSRSKGRKSRSKSKSKPKSDRGSHSHSRSRSKDEYEKSRSRSRSRSPKENGKGDIKSKSRSRSQSRSNSPLPVPPSKARSVSPPPKRATSRSRSRSRSKSRSRSRSSSRD
For B4, the binding entry is “binds”.

B5: Serine/arginine repetitive matrix protein 1 (protein, UniProt Q8IYB3 1-904)
chain: MDAGFFRGTSAEQDNRFSNKQKKLLKQLKFAECLEKKVDMSKVNLEVIKPWITKRVTEILGFEDDVVIEFIFNQLEVKNPDSKMMQINLTGFLNGKNAREFMGELWPLLLSAQENIAGIPSAFLELKKEEIKQRQIEQEKLASMKKQDEDKDKRDKEEKESSREKRERSRSPRRRKSRSPSPRRRSSPVRRERKRSHSRSPRHRTKSRSPSPAPEKKEKTPELPEPSVKVKEPSVQEATSTSDILKVPKPEPIPEPKEPSPEKNSKKEKEKEKTRPRSRSRSKSRSRTRSRSPSHTRPRRRHRSRSRSYSPRRRPSPRRRPSPRRRTPPRRMPPPPRHRRSRSPVRRRRRSSASLSGSSSSSSSSRSRSPPKKPPKRTSSPPRKTRRLSPSASPPRRRHRPSPPATPPPKTRHSPTPQQSNRTRKSRVSVSPGRTSGKVTKHKGTEKRESPSPAPKPRKVELSESEEDKGGKMAAADSVQQRRQYRRQNQQSSSDSGSSSSSEDERPKRSHVKNGEVGRRRRHSPSRSASPSPRKRQKETSPRGRRRRSPSPPPTRRRRSPSPAPPPRRRRTPTPPPRRRTPSPPPRRRSPSPRRYSPPIQRRYSPSPPPKRRTASPPPPPKRRASPSPPPKRRVSHSPPPKQRSSPVTKRRSPSLSSKHRKGSSPSRSTREARSPQPNKRHSPSPRPRAPQTSSSPPPVRRGASSSPQRRQSPSPSTRPIRRVSRTPEPKKIKKAASPSPQSVRRVSSSRSVSGSPEPAAKKPPAPPSPVQSQSPSTNWSPAVPVKKAKSPTPSPSPPRNSDQEGGGKKKKKKKDKKHKKDKKHKKHKKHKKEKAVAAAAAAAVTPAAIAAATTTLAQEEPVAAPEPKKETESEAEDNLDDLEKHLREKALRSMRKAQVSPQS
As to B5, the binding result was “binds”.

B6: Surfeit locus protein 6 (protein, UniProt O75683 1-361)
chain: MASLLAKDAYLQSLAKKICSHSAPEQQARTRAGKTQGSETAGPPKKKRKKTQKKFRKREEKAAEHKAKSLGEKSPAASGARRPEAAKEEAAWASSSAGNPADGLATEPESVFALDVLRQRLHEKIQEARGQGSAKELSPAALEKRRRRKQERDRKKRKRKELRAKEKARKAEEATEAQEVVEATPEGACTEPREPPGLIFNKVEVSEDEPASKAQRRKEKRQRVKGNLTPLTGRNYRQLLERLQARQSRLDELRGQDEGKAQELEAKMKWTNLLYKAEGVKIRDDERLLQEALKRKEKRRAQRQRRWEKRTAGVVEKMQQRQDRRRQNLRRKKAARAERRLLRARKKGRILPQDLERAGLV
For the molecule B6, the binding result is “binds”.

B7: Splicing factor, arginine/serine-rich 7 (protein, UniProt Q16629 1-238)
chain: MSRYGRYGGETKVYVGNLGTGAGKGELERAFSYYGPLRTVWIARNPPGFAFVEFEDPRDAEDAVRGLDGKVICGSRVRVELSTGMPRRSRFDRPPARRPFDPNDRCYECGEKGHYAYDCHRYSRRRRSRSRSRSHSRSRGRRYSRSRSRSRGRRSRSASPRRSRSISLRRSRSASLRRSRSGSIKGSRYFQSPSRSRSRSRSISRPRSSRSKSRSPSPKRSRSPSGSPRRSASPERMD
Consider B7, for which the binding result is “binds”.

B8: ATP-dependent RNA helicase DDX18 (protein, UniProt Q9NVP1 1-670)
chain: MSHLPMKLLRKKIEKRNLKLRQRNLKFQGASNLTLSETQNGDVSEETMGSRKVKKSKQKPMNVGLSETQNGGMSQEAVGNIKVTKSPQKSTVLTNGEAAMQSSNSESKKKKKKKRKMVNDAEPDTKKAKTENKGKSEEESAETTKETENNVEKPDNDEDESEVPSLPLGLTGAFEDTSFASLCNLVNENTLKAIKEMGFTNMTEIQHKSIRPLLEGRDLLAAAKTGSGKTLAFLIPAVELIVKLRFMPRNGTGVLILSPTRELAMQTFGVLKELMTHHVHTYGLIMGGSNRSAEAQKLGNGINIIVATPGRLLDHMQNTPGFMYKNLQCLVIDEADRILDVGFEEELKQIIKLLPTRRQTMLFSATQTRKVEDLARISLKKEPLYVGVDDDKANATVDGLEQGYVVCPSEKRFLLLFTFLKKNRKKKLMVFFSSCMSVKYHYELLNYIDLPVLAIHGKQKQNKRTTTFFQFCNADSGTLLCTDVAARGLDIPEVDWIVQYDPPDDPKEYIHRVGRTARGLNGRGHALLILRPEELGFLRYLKQSKVPLSEFDFSWSKISDIQSQLEKLIEKNYFLHKSAQEAYKSYIRAYDSHSLKQIFNVNNLNLPQVALSFGFKVPPFVDLNVNSNEGKQKKRGGGGGFGYQKTKKVEKSKIFKHISKKSSDSRQFSH
Consider B8, for which the binding result is on record as “binds”.
